According to PMC4207488:
Results are given in words; binding and its absence hold for the method and conditions named. For part of these data: In cells and extracts the contact can be indirect. Some binding calls cover weakened binding; strength is not graded here. For part of these data: Tags and fused reporters may be left off the sequences shown. Each block holds one binder with its values, some of them ahead of it.

Tests used:
[1] = target: T1, Rpb4-TT (S. cerevisiae), P20433; experiment: co-IP; Tap-tagged protein captured from 4 mg of total yeast extract on IgG sepharose in IP buffer (40 mM HEPES-KOH pH 8.0, 100 mM KCl, 150 mM potassium acetate, 1 mM EDTA, 10% glycerol), eluted with TEV protease, SDS-PAGE and western blot; extracts of wild-type or not5Δ cells, with RNaseA where indicated; conditions: remark: other sources report otherwise
T1 chain: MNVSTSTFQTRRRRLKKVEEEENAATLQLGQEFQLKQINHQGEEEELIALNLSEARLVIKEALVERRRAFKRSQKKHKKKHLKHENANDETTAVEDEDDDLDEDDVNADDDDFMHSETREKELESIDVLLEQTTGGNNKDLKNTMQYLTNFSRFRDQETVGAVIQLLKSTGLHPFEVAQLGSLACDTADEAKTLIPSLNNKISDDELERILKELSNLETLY

Not4-TT (S. cerevisiae) = target: T2, Not4-TT (S. cerevisiae) (UniProt P34909); experiment: as above
T2 sequence: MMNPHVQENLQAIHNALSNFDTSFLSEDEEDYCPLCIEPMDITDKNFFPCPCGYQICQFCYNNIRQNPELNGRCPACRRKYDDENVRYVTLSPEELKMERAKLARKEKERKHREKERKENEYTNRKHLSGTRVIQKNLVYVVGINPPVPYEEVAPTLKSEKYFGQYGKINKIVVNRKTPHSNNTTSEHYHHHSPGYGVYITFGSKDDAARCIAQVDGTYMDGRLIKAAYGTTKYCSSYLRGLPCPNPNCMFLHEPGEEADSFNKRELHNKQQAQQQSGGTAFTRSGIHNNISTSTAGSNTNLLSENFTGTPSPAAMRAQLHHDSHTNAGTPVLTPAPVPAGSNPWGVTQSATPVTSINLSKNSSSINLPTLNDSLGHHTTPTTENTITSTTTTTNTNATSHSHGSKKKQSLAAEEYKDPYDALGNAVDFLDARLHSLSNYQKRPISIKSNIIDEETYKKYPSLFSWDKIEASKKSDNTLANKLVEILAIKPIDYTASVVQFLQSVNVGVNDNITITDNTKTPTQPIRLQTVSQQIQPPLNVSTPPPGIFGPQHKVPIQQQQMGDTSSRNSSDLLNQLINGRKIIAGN

[2] = target: T3, LexA-Rpb4 (S. cerevisiae) (UniProt P20433); experiment: two-hybrid; LexA fusion as bait (pLex202), B42 fusions as preys (pJG4-5), reporter strain MY290; serial dilutions spotted on medium selective for the plasmids and indicative of an interaction (-L)
T3 sequence: T1 chain

binding [1]: binds
B1: Ccr4, P31384 1-837 (protein)
chain: MNDPSLLGYPNVGPQQQQQQQQQQHAGLLGKGTPNALQQQLHMNQLTGIPPPGLMNNSDVHTSSNNNSRQLLDQLANGNANMLNMNMDNNNNNNNNNNNNNNNGGGSGVMMNASTAAVNSIGMVPTVGTPVNINVNASNPLLHPHLDDPSLLNNPIWKLQLHLAAVSAQSLGQPNIYARQNAMKKYLATQQAQQAQQQAQQQAQQQVPGPFGPGPQAAPPALQPTDFQQSHIAEASKSLVDCTKQALMEMADTLTDSKTAKKQQPTGDSTPSGTATNSAVSTPLTPKIELFANGKDEANQALLQHKKLSQYSIDEDDDIENRMVMPKDSKYDDQLWHALDLSNLQIFNISANIFKYDFLTRLYLNGNSLTELPAEIKNLSNLRVLDLSHNRLTSLPAELGSCFQLKYFYFFDNMVTTLPWEFGNLCNLQFLGVEGNPLEKQFLKILTEKSVTGLIFYLRDNRPEIPLPHERRFIEINTDGEPQREYDSLQQSTEHLATDLAKRTFTVLSYNTLCQHYATPKMYRYTPSWALSWDYRRNKLKEQILSYDSDLLCLQEVESKTFEEYWVPLLDKHGYTGIFHAKARAKTMHSKDSKKVDGCCIFFKRDQFKLITKDAMDFSGAWMKHKKFQRTEDYLNRAMNKDNVALFLKLQHIPSGDTIWAVTTHLHWDPKFNDVKTFQVGVLLDHLETLLKEETSHNFRQDIKKFPVLICGDFNSYINSAVYELINTGRVQIHQEGNGRDFGYMSEKNFSHNLALKSSYNCIGELPFTNFTPSFTDVIDYIWFSTHALRVRGLLGEVDPEYVSKFIGFPNDKFPSDHIPLLARFEFMKTNTGSKKV

binding (Not4-TT (S. cerevisiae)): binds
B2: HA-tagged Rpb4 (protein, UniProt P20433 1-221)
chain: T1 chain

binding [2]: binds
B3: B42-Not5 (protein, UniProt Q12514 1-560)
chain: MSQRKLQQDIDKLLKKVKEGIEDFDDIYEKFQSTDPSNSSHREKLESDLKREIKKLQKHRDQIKTWLSKEDVKDKQSVLMTNRRLIENGMERFKSVEKLMKTKQFSKEALTNPDIIKDPKELKKRDQVLFIHDCLDELQKQLEQYEAQENEEQTERHEFHIANLENILKKLQNNEMDPEPVEEFQDDIKYYVENNDDPDFIEYDTIYEDMGCEIQPSSSNNEAPKEGNNQTSLSSIRSSKKQERSPKKKAPQRDVSISDRATTPIAPGVESASQSISSTPTPVSTDTPLHTVKDDSIKFDNSTLGTPTTHVSMKKKESENDSEQQLNFPPDRTDEIRKTIQHDVETNAAFQNPLFNDELKYWLDSKRYLMQPLQEMSPKMVSQLESSLLNCPDSLDADSPCLYTKPLSLPHPTSIFFPNEPIRFVYPYDVPLNLTNNENDTDNKFGKDSKAKSKKDDDIYSRTSLARIFMKFDLDTLFFIFYHYQGSYEQFLAARELFKNRNWLFNKVDRCWYYKEIEKLPPGMGKSEEESWRYFDYKKSWLARRCGNDFVYNEEDFEKL
